Experimental data: PubChem BioAssay AID743121 (NCATS, 2013)

Aim: 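Genes whose silencing strengthens cell killing by camptothecin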 (primary screen)
Cells: MDA-MB-231 cells, a human breast cancer line
Knock-down reagent: single siRNA against human genes, 20 nM siRNA (0.8 pmol per well)
Timing: 120 h (drug added 48 h after transfection, read 72 h later)
Treatment: camptothecin 20 nM (about EC30) for 72 h; vehicle 0.1% DMSO in parallel plates
Detection: 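CellTiter-Glo ATP signal, scaled to control siRNA as percent viability; sensitisation given as log2 of untreated divided by camptothecin-treated viability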
Scale: log2 vehicle/camptothecin viability: higher = stronger sensitisation to camptothecin; viability with camptothecin and viability without drug: higher = more viable cells
Active means: 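Each gene scored by redundant siRNA activity (RSA) over its individual siRNA ratios; a gene is called active at p < 0.001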
Shown is an unselected part of about 26,000 deposited reagents. 167 of all reagents (0.63%) count as active. 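Calls are per gene from RSA p-values that are not deposited; an individual active-marked siRNA can sensitise only weakly.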 Reagents against one gene are numbered here. No sequences are given here.

gene,reagent,log2 vehicle/camptothecin viability,viability with camptothecin (% of control),viability without drug (% of control),call
CSNK1G3,1,-0.802,38.7,22.2,inactive
CSNK1G3,2,-0.085,41.4,39,inactive
CSNK1G3,3,0.713,26.6,43.6,inactive
CSNK1G3,4,-0.0804,102,96.3,inactive
GRIK3,1,-0.371,80.1,61.9,inactive
GRIK3,2,0.435,46.7,63.2,inactive
GRIK3,3,-0.357,77.7,60.6,inactive
GRIK3,4,-0.352,49.3,38.6,inactive
ELK1,1,-0.0338,114,112,inactive
ELK1,2,-0.366,79.6,61.8,inactive
ELK1,3,0.676,19.9,31.8,inactive
ELK1,4,0.146,62.5,69.2,inactive
OR10H1,1,-0.154,73,65.6,inactive
OR10H1,2,-0.021,96.1,94.7,inactive
OR10H1,3,0.0891,99.5,106,inactive
OR10H1,4,-0.12,72.9,67.1,inactive
IFNA10,1,-0.18,101,89.1,inactive
IFNA10,2,-0.153,93.5,84.2,inactive
CXCR5,1,-0.378,103,79.5,inactive
CXCR5,2,0.275,89.7,108,inactive
CXCR5,3,-0.296,75.2,61.3,inactive
CXCR5,4,0.0359,58,59.4,inactive
PSMD14,1,-0.116,16,14.8,inactive
PSMD14,2,-0.714,20.3,12.4,inactive
PSMD14,3,0.523,9.5,13.6,inactive
FOS,1,0.218,11.7,13.7,inactive
FOS,2,-0.32,105,84.3,inactive
FOS,3,0.0214,68.5,69.5,inactive
FOS,4,0.019,83.9,85,inactive

The list goes on (10 carried over from the part before).
gene,reagent,log2 vehicle/camptothecin viability,viability with camptothecin (% of control),viability without drug (% of control),call
CXCR5,2,0.275,89.7,108,inactive
CXCR5,3,-0.296,75.2,61.3,inactive
CXCR5,4,0.0359,58,59.4,inactive
PSMD14,1,-0.116,16,14.8,inactive
PSMD14,2,-0.714,20.3,12.4,inactive
PSMD14,3,0.523,9.5,13.6,inactive
FOS,1,0.218,11.7,13.7,inactive
FOS,2,-0.32,105,84.3,inactive
FOS,3,0.0214,68.5,69.5,inactive
FOS,4,0.019,83.9,85,inactive
SLC7A6,1,-0.196,96.6,84.3,inactive
SLC7A6,2,-0.266,38.6,32.1,inactive
SLC7A6,3,-0.116,92.7,85.5,inactive
SGSH,1,-0.411,54.9,41.3,inactive
SGSH,2,-0.245,52,43.9,inactive
SGSH,3,-0.168,66.8,59.5,inactive
SGSH,4,0.659,36.5,57.6,inactive
S1PR2,1,-0.147,90.7,81.9,inactive
S1PR2,2,-0.19,74.1,64.9,inactive
S1PR2,3,-0.146,71.7,64.8,inactive
S1PR2,4,-0.0484,64.7,62.6,inactive
NUP62,1,-0.419,68.4,51.2,inactive
NUP62,2,-0.59,17.3,11.5,inactive
NUP62,3,0.154,15.7,17.4,inactive
NUP62,4,-0.235,73.5,62.4,inactive
NOX4,1,-0.0564,58.1,55.9,inactive
NOX4,2,0.083,38.5,40.8,inactive
NOX4,3,-0.0555,98.1,94.4,inactive
PTPN12,1,0.0884,96.8,103,inactive
PTPN12,2,0.52,37.2,53.3,inactive
PTPN12,3,-0.281,138,114,inactive
PTPN12,4,-0.31,23.8,19.2,inactive
ARSF,1,-0.165,81,72.2,inactive
ARSF,2,-0.079,79.8,75.6,inactive
ARSF,3,-0.188,63.1,55.4,inactive
ARSF,4,0.28,47.2,57.3,inactive
BRAF,1,0.00985,83.3,83.9,inactive
BRAF,2,-0.181,52.6,46.4,inactive
BRAF,3,0.0354,76.8,78.7,inactive
BRAF,4,-0.292,90.7,74,inactive
CASP8,1,-0.312,43.2,34.8,inactive
CASP8,2,-0.109,74.3,68.9,inactive
CASP8,3,-0.654,124,79,inactive
CASP8,4,-0.215,122,105,inactive
EZH2,1,-0.0661,102,97.3,inactive
EZH2,2,0.129,97.8,107,inactive
EZH2,3,0.0917,92.5,98.5,inactive
EZH2,4,0.596,39.2,59.3,inactive
PAFAH1B3,1,-0.587,56.8,37.8,inactive
PAFAH1B3,2,-0.357,71.5,55.8,inactive
PAFAH1B3,3,-0.0463,91.6,88.7,inactive
